Laboratory results: PubChem BioAssay AID602196 (INSERM, 2012)
Assay: 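Modifiers of cisplatin sensitivity in A549 cells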. System: human A549 lung cancer cells. Reagent: siRNA pair against human genes. Timing: 48 h transfection before cisplatin; time from cisplatin to read-out not stated. Challenge: cisplatin at a dose killing half of control-siRNA cells; exact dose and duration not given. Read-out: 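Shift in cisplatin death relative to control siRNA, from -50 (all cells die) to +50 (no cells die); siRNAs harmful on their own scored 0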. Direction: two-siRNA summed score (-2 to +2): higher = both siRNAs protect from cisplatin killing; -2 means both sensitise. Call rule: 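Each siRNA scores 0 if harmful alone by LDH or WST-1, otherwise +1 if it reduces and -1 if it increases cisplatin killing; a gene is active when both siRNAs agree (sum +2 or -2)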. Calls: active = both siRNAs shift cisplatin killing the same way; inactive = no consistent shift, or siRNA harmful alone.
In all, the deposit lists about 23,000 reagents; this is an unselected part. 455 of them (2%) count as active. 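Active includes both protection and sensitisation; some change values fall well beyond the stated -50 to +50 range.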 The numbers tell different reagents against one gene apart. Further read-outs or replicates are left out here. Not given: the amount of reagent.

no.	target	reagent	two-siRNA summed score (-2 to +2)	Call
1	SLC16A2	1	0	inactive
2	INPP5E	1	0	inactive
3	ESRRB	1	0	inactive
4	ENPP3	1	-1	inactive
5	LOC442556	1	1	inactive
6	LOC402563	1	0	inactive
7	APOH	1	1	inactive
8	SMAD4	1	0	inactive
9	LOC254439	1	0	inactive
10	LTK	1	0	inactive
11	STK36	1	0	inactive
12	ARRB2	1	0	inactive
13	LOC255330	1	0	inactive
14	LOC255519	1	0	inactive
15	RRAS	1	0	inactive
16	LOC440360	1	1	inactive
17	KRT6B	1	0	inactive
18	OXT	1	1	inactive
19	MRC1	1	0	inactive
20	MRC1	2	0	inactive
21	KCNJ2	1	-1	inactive
22	SERINC5	1	0	inactive
23	ABCE1	1	-1	inactive
24	CLTC	1	1	inactive
25	LOC440849	1	1	inactive
26	CDYL2	1	0	inactive
27	PRKCA	1	0	inactive
28	GZMM	1	0	inactive
29	PCDHB14	1	0	inactive
30	SYT2	1	0	inactive
31	JOSD1	1	0	inactive
32	SLC35B1	1	0	inactive
33	KIAA1272	1	0	inactive
34	MRNIP	1	0	inactive
35	MRNIP	2	1	inactive
36	PHACTR1	1	0	inactive
37	ERCC6L2-AS1	1	0	inactive
38	PLRG1	1	1	inactive
39	RAB7A	1	0	inactive
40	CFHR3	1	0	inactive
41	ACACB	1	0	inactive
42	CIPC	1	0	inactive
43	LOC441139	1	1	inactive
44	PYROXD2	1	0	inactive
45	ZNF566	1	0	inactive
46	LOC441665	1	1	inactive
47	KCNG4	1	1	inactive
48	LOC441344	1	0	inactive
49	LOC439928	1	0	inactive
50	RBBP9	1	0	inactive
51	SNCG	1	0	inactive
52	CLEC9A	1	0	inactive
53	URB1-DT	1	0	inactive
54	AKAP9	1	0	inactive
55	ACADS	1	1	inactive
56	CMBL	1	1	inactive
57	AATBC	1	0	inactive

Records above whose target name begins with K or k:
target	reagent	two-siRNA summed score (-2 to +2)	Call
KRT6B	1	0	inactive
KCNJ2	1	-1	inactive
KIAA1272	1	0	inactive
KCNG4	1	1	inactive
